# Results published in PubChem BioAssay AID504842 (National Center for Advancing Translational Sciences (NCATS), 2011).
# In all, about 330,000 compounds went through this assay and about 100 (0.03%) were called active. This list was built around the results that the source calls inconclusive (neither active nor inactive); the mix of calls is not that of the screen. Calls follow the shape of the dose curve; as a rule, active = well fitted inhibition curve with a large enough effect; inconclusive = small, poorly fitted or top-dose-only effect; inactive = flat fitted curve, though single readings scatter. A potency beside an inconclusive call is a rough fit, not a confirmed value.
# Tested on: Chaperonin Mm-Cpn (Methanococcus maripaludis)
# Experiment: Inhibitors of TCP-1 ring complex (TRiC) of Methanococcus maripaludis (MmCpn): qHTS; also: nearly all actives have a fitted effect of over 80% in size;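 as to potency: enzyme at 25 nM with ATP substrate at 10 µM during the reaction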
# Settings: purified Mm-Cpn ATPase, ADP Transcreener TR-FRET; activity, negative = inhibition: at the top concentration
# Method in brief: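 Compound-treated chaperonin, 25 nM final, turns over 10 uM ATP at 37°C for 30 min following a 10 min preincubation; ADP generated competes with ADP-d2 for Eu-cryptate antibody, lowering FRET.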
# % is scaled to controls: 0 for no effect and ±100 for the full control effect; potency is read from the fitted curve at half-maximal effect.
Compound,"activity, negative = inhibition",Potency
Cc1cc([N+](=O)[O-])nn1CCCC(=O)Nc1c(C)n(C)n(-c2ccccc2)c1=O,inactive: -2.26%,–
O=C1NC(NS(=O)(=O)c2ccccc2)(C(F)(F)F)C(=O)N1CCc1ccccc1 (centres undefined),–,"inconclusive: 17.8 µM [inhibitor, single point]"
CCC(CO)Oc1cc(NC(=O)c2cccc(OC)c2)c2ncn(C(C)C)c2c1 (centres undefined),–,"inconclusive: 22.4 µM [inhibitor, single point]"
Cc1cccc(N2CCN(C(=O)CCNS(=O)(=O)c3ccc4c(c3)oc(=O)n4C)CC2C)c1 (centres undefined),inactive: 0.433%,–
CCC(Sc1ccc2nnc(-c3ccc(F)cc3)n2n1)C(=O)O (centres undefined),–,"inconclusive: 158 µM [inhibitor, partial curve, poor fit]"
CC(C)OC(=O)c1c2c(n3ccccc13)C(=O)c1ccccc1C2=O,inactive: -1.63%,–
CSc1oc(-c2cccs2)nc1S(=O)(=O)c1ccccc1,–,"inconclusive: 112 µM [inhibitor, single point]"
Cc1ccc(N2C(=O)c3cccc4c(N5CCN(C)CC5)ccc(c34)C2=O)c2cccnc12,–,"inconclusive: 89.1 µM [inhibitor, single point]"
CC(C)OC(=O)CSc1nc(N)c(C#N)cc1C#N,–,"inconclusive: 316 µM [inhibitor, partial curve, poor fit]"
CC1(C)CC(=O)C2=C(C1)c1c(ccc3ccccc13)NC2c1ccc(C(=O)O)cc1 (centres undefined),inactive: -4.61%,–
COc1ccc(C)cc1S(=O)(=O)NCCC1=CCCCC1,inactive: 1.37%,–
Cc1occc1C(=O)NN=C1C2CC3CC(C2)CC1C3,inactive: -2.78%,–
FC(F)(F)c1nnc(Nc2ccc(Cl)cc2)s1,–,"inconclusive: 28.2 µM [inhibitor, single point]"
O=C(NC(=S)Nc1ccccn1)c1ccc(-c2ccccc2)cc1,inactive: -3.79%,–
CN(C)C(=S)Nc1ccc([N+](=O)[O-])cc1,inactive: -0.268%,–
Cc1cccc(C(=O)Nc2ccc(S(=O)(=O)N3CCOCC3)cc2)c1[N+](=O)[O-],–,"inconclusive: 70.8 µM [inhibitor, single point]"
COc1ccc(-c2c(=O)n(OCc3ccccc3[N+](=O)[O-])c3ccccc3[n+]2[O-])c(OC)c1,–,"inconclusive: 10 µM [inhibitor, single point]"
COc1cc2c(cc1OC)CN(CC(=O)Nc1ccc3c(c1)OC(F)(F)O3)CC2,–,"inconclusive: 15.8 µM [inhibitor, single point]"
Cn1c(SCC(=O)NC(C)(C)C)nnc1-c1ccc(C(C)(C)C)cc1,–,"inconclusive: 398 µM [inhibitor, partial curve, poor fit]"
COc1cccc(CNS(=O)(=O)c2c(C)[nH]c(C)c2C(=O)N2CCCCC2)c1,inactive: -0.46%,–
CCS(=O)(=O)Nc1ccc(C2=NN(C(=O)c3ccco3)C(c3cccc(F)c3)C2)cc1 (centres undefined),inactive: 2.43%,–
CCN(CC)c1ccc(/C=N/N2CCN(c3ccccc3OC)CC2)cc1,–,"inconclusive: 17.8 µM [inhibitor, single point]"
Cc1cnc(Nc2nc3ccccc3o2)nc1C(=O)Nc1cccc(C(F)(F)F)c1,inactive: -0.521%,–

Compound,"activity, negative = inhibition",Potency
Cn1nnnc1Sc1ncnc2scc(-c3ccc(C#N)cc3)c12,–,"inconclusive: 200 µM [inhibitor, partial curve, poor fit]"
COc1cccc(Nc2ncnc3c2cnn3-c2cccc(C)c2)c1,–,"inconclusive: 17.8 µM [inhibitor, single point]"
CC(C)Oc1cccc(C(=O)NC(=S)Nc2ccc(Cl)c(C(=O)O)c2)c1,inactive: 0.0445%,–
Cc1cnc(C(=O)OC(C(=O)Nc2cc(C(F)(F)F)ccc2Cl)c2ccccc2)cn1 (centres undefined),–,"inconclusive: 44.7 µM [inhibitor, single point]"
Cc1cc(-c2ccc(N=Nc3c(S(=O)(=O)O)cc4cc(S(=O)(=O)O)cc(N)c4c3O)c(C)c2)ccc1N=Nc1c(S(=O)(=O)O)cc2cc(S(=O)(=O)O)cc(N)c2c1O,–,active: 31.6 µM
CCCCn1c(-c2ccsc2)nc2c1c(=O)[nH]c(=O)n2CCC,inactive: -7.39%,–
CC[n+]1ccc(C)c2cc(S(=O)C(F)(F)F)ccc21 (centres undefined),–,"inconclusive: 56.2 µM [inhibitor, single point]"
O=S(=O)(NCCSCc1c(Cl)cccc1Cl)c1ccc2c(c1)OCCO2,inactive: -0.917%,–
O=C(CSc1nnc(Cc2cccs2)n1C1CCCCC1)N1CCCc2ccccc21,inactive: -0.0739%,–
O=C(Nc1cccc(NC(=O)c2ccc(-c3ccc(Br)cc3)o2)c1)c1ccco1,–,"inconclusive: 89.1 µM [inhibitor, partial curve]"
Cc1ncc(CO)c2c1Oc1nc(-c3ccccc3)nc(SCC(=O)Nc3cccc(O)c3)c1C2,inactive: 3.92%,–
Cn1c(-c2sc3ccccc3c2Cl)n[nH]c1=S,–,"inconclusive: 708 µM [inhibitor, partial curve, poor fit]"
CCc1cn([C@H]2C[C@H](O)[C@@H](CO)O2)c(=O)[nH]c1=O,inactive: 2.15% [at 15.4 µM],–
N#CC(C#N)=c1ccc2c(c1)NC1(CCCCC1)N=2,–,"inconclusive: 70.8 µM [inhibitor, partial curve, poor fit]"
CNC(=O)/C=C1\NC(C)(C)Cc2c1ccc1ccccc21,–,"inconclusive: 63.1 µM [inhibitor, single point]"
CC(=O)NC(CC(=O)Nc1ccc(S(=O)(=O)Nc2nccs2)cc1)c1ccccc1 (centres undefined),–,"inconclusive: 31.6 µM [inhibitor, partial curve, poor fit]"
CCOC(=O)Cn1c(=O)n(Cc2ccco2)c(=O)c2ccc(C(=O)NCCc3ccccc3)cc21,–,"inconclusive: 25.1 µM [inhibitor, single point]"
O=C(O)CCCN1C(=O)/C(=C/c2ccc(-c3nc4ccccc4s3)o2)SC1=S,inactive: 0.259%,–
O=C(NC1CCN(Cc2ccccc2)CC1)C1COc2ccccc2O1 (centres undefined),–,"inconclusive: 6.31 µM [inhibitor, partial curve, poor fit]"
O=C(Nc1ccccc1C(=O)OCC(=O)c1c[nH]c2ccccc12)c1ccco1,–,"inconclusive: 100 µM [inhibitor, single point]"
CCn1c(-c2cc(-c3ccccc3OC)nc3ccccc23)n[nH]c1=S,–,"inconclusive: 224 µM [inhibitor, partial curve, poor fit]"
CC(=O)Nc1nnc(SCC(=O)N2C(C)CCCC2C)s1 (centres undefined),–,"inconclusive: 708 µM [inhibitor, partial curve, poor fit]"
Fc1ccc(C2CC(c3cccs3)=NN2C(=S)Nc2ccccc2)cc1 (centres undefined),–,"inconclusive: 112 µM [inhibitor, single point]"

# Reprinted at random: 3 entries already listed
Compound,"activity, negative = inhibition",Potency
CCCCn1c(-c2ccsc2)nc2c1c(=O)[nH]c(=O)n2CCC,inactive: -7.39%,–
Cc1ncc(CO)c2c1Oc1nc(-c3ccccc3)nc(SCC(=O)Nc3cccc(O)c3)c1C2,inactive: 3.92%,–
Cn1c(-c2sc3ccccc3c2Cl)n[nH]c1=S,–,"inconclusive: 708 µM [inhibitor, partial curve, poor fit]"

# Carrying on.

Compound,"activity, negative = inhibition",Potency
NC(=O)C1CCN(c2nc(-c3ccc(Cl)cc3)cs2)CC1,inactive: -2.18%,–
COc1cc(NC(=O)CCS(=O)(=O)c2ccc3nc(C)sc3c2)cc(OC)c1OC,–,"inconclusive: 63.1 µM [inhibitor, single point]"
O=C(Nc1nc(-c2ccccn2)cs1)c1cc(Cl)ccc1[N+](=O)[O-],inactive: -0.312%,–
COc1ccccc1CNC(=O)COC(=O)c1cccc(-n2cnnn2)c1,inactive: -0.406%,–
COCCNC(=O)c1cc(Br)ccc1Cl,–,"inconclusive: 17.8 µM [inhibitor, single point]"
CC(=O)NC(NC(=S)Nc1c(C)n(C)n(-c2ccccc2)c1=O)C(Cl)(Cl)Cl (centres undefined),inactive: 0.437%,–
O=C1NC(=Nc2ccccc2)c2ccc([N+](=O)[O-])cc21,–,"inconclusive: 79.4 µM [inhibitor, single point]"
CC(C(=O)N1CCc2ccccc21)N1CCN(c2ccccn2)CC1 (centres undefined),–,"inconclusive: 100 µM [inhibitor, single point]"
O=C(C1CCC1)N1CCN(c2ccc(C(F)(F)F)cc2[N+](=O)[O-])CC1,inactive: 0.0087%,–
CC1Cc2cc(-c3csc(NC(=O)Cc4ccccc4)n3)ccc2N1S(C)(=O)=O (centres undefined),–,"inconclusive: 224 µM [inhibitor, partial curve, poor fit]"
N#Cc1c(SCC(=O)O)nc(N2CCCCC2)c2c1CCCC2,inactive: -1.2%,–
O=C(O)CSc1nnc(COc2cccc3ccccc23)o1,–,"inconclusive: 56.2 µM [inhibitor, single point]"
COc1ccc(C(=O)NC(C)Cn2nc(C)cc2C)cc1OC1CCN(C(C)=O)CC1 (centres undefined),–,"inconclusive: 100 µM [inhibitor, single point]"
O=C(N1CCC(n2nc(-c3ccccc3)oc2=O)CC1)C1(c2ccc(Cl)cc2)CC1,inactive: 0.225%,–
c1ccc(-c2nn3nnnc3c3ccccc23)cc1,–,"inconclusive: 14.1 µM [inhibitor, single point]"
C[C@]12c3[nH]c4ccccc4c3CCN1C(=O)C(CC(=O)NCC13CC4CC(CC(C4)C1)C3)C[C@@H]2C(=O)N1CCOCC1 (some centres undefined),–,"inconclusive: 100 µM [inhibitor, single point]"
O=C(CC12CC3CC(CC(C3)C1)C2)NCCN1CCOCC1,–,"inconclusive: 20 µM [inhibitor, single point]"
COc1ccc(/C=N/Nc2nc(-c3ccc(C)cc3)c(C#N)c(=O)[nH]2)cc1,–,"inconclusive: 10 µM [inhibitor, single point]"
COc1ccc(CCN(C)S(=O)(=O)c2cn(C)c(=O)n(C)c2=O)cc1OC,–,"inconclusive: 89.1 µM [inhibitor, single point]"
COCCOC(=O)C1=C(C)N(c2ccccc2)C(=S)NC1c1ccccc1C(F)(F)F (centres undefined),inactive: -4.2%,–
CC(C)CC(CC(C)C)=NNC(=O)c1ccc2c(c1)OCO2,–,"inconclusive: 56.2 µM [inhibitor, single point]"
O=c1c(-c2c(O)cc(O)c3c2O[C@H](c2ccc(O)cc2)CC3)c(-c2ccc(O)cc2)oc2cc(O)cc(O)c12,–,active: 35.5 µM
Cc1ccc(NC(=S)Nc2cccc(-c3n[nH]c(=S)o3)c2)cc1,–,active: 50.1 µM
